Screening data, single-dose tests

From ChEMBL document CHEMBL3988442, “University of Dundee, Small-Polar-MMV Screening Library” (2021).

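Phenotypic screen: M. tuberculosis growth, glucose 7H9 medium, 3 days; the read-out is not stated. Concentration: 50 µM. Direction is inferred from retests: higher values go with more growth inhibition. About 69,000 compounds were tested under these conditions; 1.1% (about 760) showed 50% or more at least once.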

Values are the deposited “Percent Effect”, in %.
The controls that fix the scale are not given in the record; negative values are as filed.
This is an unselected part of the compounds tested.
Two or more numbers in one place are separate tests of the same structure; such repeats can differ widely.

- CC(C)Cc1nc(CNCc2cccc(N3CCCC3=O)c2)no1 | 24.4%
- CN1C[C@@H](C(=O)NC2CC2)[C@@]2(COc3ccc(F)cc3C2=O)C1 | -30.96%
- COC(=O)CNC(=O)Cn1ccc2cccc(OC)c21 | -14.78%
- CCN1CC(COC(=O)c2cc(C)nn2CC)CC1=O (configuration not stated) | 17.6%
- Cn1cc(CN2CCC[C@]3(C[C@@H](Oc4ncccc4F)CO3)C2)cn1.O=C(O)C(F)(F)F.O=C(O)C(F)(F)F | -2.275%
- O=C(C1CCCC1)N1CCC2(CC1)OCCO2 | 4.43%
- O=C(NCCN1CCCC1)C1(c2ccc(Cl)cc2)CCOCC1 | -3.31%
- Cc1nc2ccccc2nc1CN1CCCC1c1c(C)nn(C)c1C (configuration not stated) | -12.02%
- CN(C(=O)NCc1ccncc1)C1CCN(c2ccccc2)C1=O (configuration not stated) | 36.23%
- O=S(=O)(c1ccccc1)N1CCOCC(Cc2cccnc2)C1 (configuration not stated) | 17.62%
- CCn1cc(-c2cc(C(F)(F)F)nc(NC3CCCC3)n2)c(C)n1 | 30.05% & 44.66%
- COCc1nc(C(=O)NS(=O)(=O)c2ccc(F)c(F)c2)cs1 | -16.95% & -0.6517%
- CC(C)=CCN1CCNC(=O)C1CC(=O)N1CCc2sccc2C1 (configuration not stated) | 11.99%
- CCCN(CC)Cn1ncc2cn(-c3ccccc3)nc2c1=O | -32.07%
- O=C(C1SCCc2sccc21)N1CCN(C2CC2)C(=O)C1 (configuration not stated) | -34.26% & -0.8463%
- Cc1cc(NC(=O)NCc2cccnc2OC(C)C)n(C)n1 | -17.41%
- Cc1nc(COCc2cnc3n2CCN(C2CCC2)C3C)cs1.O=C(O)C(F)(F)F (configuration not stated) | 27.19%
- O=C(C1CC1)N1CCCC(C2=Nc3ccccc3S(=O)(=O)N2)C1 (configuration not stated) | 1.505%
- CC(C)C1CC(=O)Nc2c1cnn2Cc1ccco1 (configuration not stated) | 6.4%
- OC1(CNCCc2nc(Cc3ccccc3)no2)CNCCOC1 (configuration not stated) | 15.22%
- CCN(CC)C(CNC(=O)c1c(C)noc1C(C)C)c1ccsc1 (configuration not stated) | -6.984% & -19.53%
- O=C(c1ccccn1)N1CCC(Cc2cnc3[nH]ccc3c2)CC1 | -20.89%
- Cc1n[nH]c(CN2CCN(c3ncnc4scc(C)c34)CC2)c1Cl | 15.11% & 8.065%
- O=C(NCC(O)C1CC1)Nc1cnn(Cc2ccccc2)c1 (configuration not stated) | -31.13%
- Cc1ccc(-c2cc(C(=O)NCC3CCOC3)n[nH]2)s1 (configuration not stated) | 4.773% & 17%
- CS(=O)(=O)C1CCN(S(=O)(=O)c2ccc(F)c(F)c2)CC1 | 9.892%
- Cc1cc2c(cc1Cl)C=CC1(CCN(CC(=O)NC3CCCC3)CC1)O2 | 51.26%
- CN(Cc1noc(C2CC2)n1)C1CCN(Cc2nc(C3CC3)no2)C1 (configuration not stated) | -1.755%
- CNC(=O)c1cc2c(nc1NCC1CC1)CCN(CC1CC1)CC2.O=C(O)C(F)(F)F.O=C(O)C(F)(F)F | -5.124%
- Cc1ccc(CN2CCC3(CC2)CN(C(=O)c2cnccn2)CCO3)o1.O=C(O)C(F)(F)F | 11.64%
- N#Cc1ccccc1N1CC2(CCCCN2CC2CC2)CC1=O.O=C(O)C(F)(F)F (configuration not stated) | -8.005% & 17.4%
- O=C(NCCc1ccncc1)C1CCN(Cc2ccco2)CC1 | -16.95%
- Cc1cccc(OCC(=O)N(C)C2CCN(CC3CCOC3)CC2)c1 (configuration not stated) | 28.18%
- CCCc1nc(C(=O)NCc2cccnc2-n2cncn2)cs1 | -7.58% & -0.6467%
- Cc1ccc(C(=O)N2CCC3(CC2)CC(N2CCOCC2)C3)cc1.O=C(O)C(F)(F)F | 25.81%
- CN1CCOC(CNCc2nc(-c3ccccc3)cs2)C1 (configuration not stated) | 11.94%

For reference, 3 entries once more:

structure,percent effect
CCn1cc(-c2cc(C(F)(F)F)nc(NC3CCCC3)n2)c(C)n1,30.05% & 44.66%
CC(C)=CCN1CCNC(=O)C1CC(=O)N1CCc2sccc2C1 (configuration not stated),11.99%
CS(=O)(=O)C1CCN(S(=O)(=O)c2ccc(F)c(F)c2)CC1,9.892%